Data published in patent US8859496B2 (Postech Academy-Industry Foundation, priority 2010, dated 2014).

Experiment: peptide made by a vendor
Conditions: whole synthesis

Sequence: EWVCDEPKDQTVVGPALAAYRLEDTFGPDPTMIRANCLV (Amino acid sequence of linker polypeptide comprising the linker region of SEQ ID NO 5)
- purity (crude or final not stated): about 99.1%

End groups of sequences in plain letters are not given here.
